The text below walks through data of US20150140000A1.

Sequences of proteins named here, by UniProt entry; tags and fusion partners are left off. A change or cut given only in a name is not applied to a line headed by its entry.
UniProt O15455: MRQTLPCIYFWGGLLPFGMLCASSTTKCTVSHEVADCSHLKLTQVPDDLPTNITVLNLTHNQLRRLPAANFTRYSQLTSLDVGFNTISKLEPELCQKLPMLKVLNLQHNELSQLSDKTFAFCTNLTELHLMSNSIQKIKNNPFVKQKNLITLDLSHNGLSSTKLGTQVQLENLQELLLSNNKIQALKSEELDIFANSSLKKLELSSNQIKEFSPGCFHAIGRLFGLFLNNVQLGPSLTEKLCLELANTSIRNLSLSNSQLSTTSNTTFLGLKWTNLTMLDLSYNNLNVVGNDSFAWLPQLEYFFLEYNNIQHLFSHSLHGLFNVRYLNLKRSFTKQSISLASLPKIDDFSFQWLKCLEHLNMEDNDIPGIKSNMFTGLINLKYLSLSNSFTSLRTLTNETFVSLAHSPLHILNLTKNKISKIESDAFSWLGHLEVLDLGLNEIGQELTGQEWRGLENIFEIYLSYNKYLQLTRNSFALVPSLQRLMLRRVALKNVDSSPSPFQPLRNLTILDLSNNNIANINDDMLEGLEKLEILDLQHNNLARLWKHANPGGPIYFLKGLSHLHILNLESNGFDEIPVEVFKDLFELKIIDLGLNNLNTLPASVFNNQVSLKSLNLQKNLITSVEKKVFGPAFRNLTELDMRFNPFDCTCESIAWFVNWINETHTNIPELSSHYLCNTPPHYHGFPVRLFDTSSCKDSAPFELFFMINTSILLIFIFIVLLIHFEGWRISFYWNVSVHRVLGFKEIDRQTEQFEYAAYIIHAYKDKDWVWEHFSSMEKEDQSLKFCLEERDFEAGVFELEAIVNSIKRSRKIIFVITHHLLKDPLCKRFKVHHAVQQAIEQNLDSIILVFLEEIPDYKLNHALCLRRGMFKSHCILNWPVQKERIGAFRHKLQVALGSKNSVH

The chains are these.
B1: antibody 11E1 (antibody, V domains shown)
VH: QVQLQQPGAELVRPGASVKLSCKASGYTFTNYWMNWVKQRPGQGLEWIGMIDPSDSETHYNQMFKDKATLTVDKSSSTAYMQLSSLTSEDSAVYYCARGGASSDYYYFDYWGQGTTLTVSSASTK
VL: ETTVTQSPASLSMAIGEKVTIRCITSTDIHDDINWYQQKPGEPPKLLISEGNTLRPGVPSRFSSSGYGTDFVFTIENMLSEDVADYYCLQSDNLPRTFGGGTKLEIKRT
B2: antibody 37B7 (antibody, V domains shown)
VH: QVQLQQSGTELVKPGSSVKISCKASGYTFTSNYMHWIRQLPGNGLEWIGWIFPGDGDTNYNQKFNGKATLTADKSSSTAYMQLSSLTSEDYAVYFCARSDGDWYFDFWGPGTMVTVSS
VL: DIQMTQSPGSLSASLGETVTIQCQASEDIYSGLAWYQQKPRKSPQLLISAASRLQDGVPSRFSGSGSGTQYSLKISSMQTEDEGVYFCQQGVKYPNTFGPGTKLELK
B3: antibody 7G11 (antibody, V domains shown)
VH: EVQLQQYGAELGKPGTSVKLSCKVSGYNITYTYMHWVNQRPGKGLEWIGRIDPANGNTIYGEKFKNKATLTADTSSNTAYMQLSQLKSDDTAIYFCAMGEFDYFDHWGQGVMVTVSS
VL: DIQMTQSPASLSASLGETVSIECLASEDISNDLAWYQQKSGKSPQVLIYAASRLEDGVPSRFSGSGSGTRYSLKISGMQPEDEADYFCQQSYKYPVTFGSGTKLEIK
B4: antibody 31F6 (antibody, V domains shown)
VH: EVQLQQSGAELGKPGTSVKLSCKVSGYNIRYTYMHWVNQRPGKGLEWIGRIDPANGDSIYGEDFKTKATLTADTSSNTAYMQLSQLKSDDTAIYFCAMGEFDYFDYWGQGVMVTVSSASTK
VL: B3 VL with A9P, D28G, K39R, V46L, E55Q, S91N, V96L
B5: antibody 32C4 (antibody, V domains shown)
VH: EVQLQQYGAELGKPGTSVKLSCKVSGYNIWSTYIYWVNQRPGKGLEWIGRIDPANGNTIYAEKFKTKATLTADTSSNTAYMQLSQLKSDDTAIYFCAMGDHGGYVMDAWGQGASVTVSS
VL: DIQMTQSPGSLSASLGETVSIECLASEDIYSYLAWYQQKPGKSPQLLIYAANRLEDGVPSRFSGSGSGTQYSLKISGMQPEDEGDYFCLQGSEFPYTFGTGTKLELK

Where a chain is given by its changes, count along the chain named. These are yes or no findings as the source states them, for the method shown. Some binding calls cover weakened binding; strength is not graded here.

The target in the experiment is wild type human TLR3 expressed in 293T cells (human) (UniProt O15455). Put plainly: FACS on cells expressing TLR3.
B1: the binding entry is recorded as “binds”.
The same measure for B2: “binds”.
On to B3, for which the binding entry is listed as “binds”.
The same measure for B4: “binds”; for B5: “binds”.
